The other results are listed elsewhere or left out. Further columns of the screen follow, without active or inactive calls. Compounds called inactive in the main read-out are mostly missing here. The note in brackets gives the kind of curve behind each potency; many fits are weak.
Test: qHTS Assay to Find Inhibitors of Chronic Active B-Cell Receptor Signaling
Details: ABC-DLBCL IkBa-CBG/CBR reporter, luminescence ratio (green luciferase fused to IkBa over red control in TMD8 lymphoma cells), 4 h
Procedure, shortened: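 Concentration-response series (up to 46 uM) were applied to TMD8 dual-reporter cells for 4 h at 37C with doxycycline. Green/red ratio, after filter-overlap correction, defined %Activity; red signal alone was normalised to basal cells and zero luminescence.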

[1] = measured here: CBR red luminescence, cell number
[2] = measured here: IkBa-CBG green luminescence

Row | Compound | AC50 [1] | AC50 [2]
1 | CCCCn1c(NCc2cc(Cl)ccc2O)nc2ccccc21 | 15.8 µM [falling, single point] | 
2 | CCOC(=O)C(C(=O)OCC)C(Nc1ccccc1)c1ccccc1 (stereo unspecified) | 10.3 µM [falling, partial curve, poor fit] | 
3 | CN1CCN(Cn2cc(/C=C/C(=O)c3ccccc3)c3ccccc32)CC1 | 5.8 µM [falling, partial curve] | 
4 | COc1cc([N+](=O)[O-])cc2sc(NC(=O)C3CC3)nc12 | 2.51 µM [falling, full curve] | 
5 | Cn1c2ccccc2c2nnc(SCC(=O)Nc3cccc(O)c3)nc21 | 15.8 µM [falling, single point] | 
6 | COc1ccc(NC(=O)CC2C(=O)N(c3ccc(F)cc3)C(=S)N2NC(=O)c2ccc(Cl)cc2)cc1 (stereo unspecified) | 16.4 µM [falling, partial curve] | 
7 | O=C(CN1CCN(S(=O)(=O)c2ccccc2)CC1)Nc1ccccc1C(=O)NC1CC1 | 9.2 µM [rising, partial curve] | 
8 | CC(C)N1CCc2c(sc(NC(=O)c3ccc(S(=O)(=O)N4CCc5ccccc54)cc3)c2C(N)=O)C1 | 10 µM [falling, partial curve, poor fit] | 
9 | N#Cc1c(N)n(Cc2ccccc2)c(=O)c2cc([N+](=O)[O-])ccc12 | 5.01 µM [rising, full curve, poor fit] | 
10 | O=C(O)CCn1nnc(-c2ccccc2)n1 | 3.98 µM [rising, partial curve, poor fit] | 
11 | COc1ccccc1N1CCN(CC(O)COc2c(OC)cccc2OC)CC1 (stereo unspecified) | 28.2 µM [rising, partial curve, poor fit] | 
12 | Cc1ccccc1NC(=O)C(=O)NCCc1c[nH]c2ccccc12 | 10 µM [falling, partial curve, poor fit] | 
13 | Cc1cc(Nc2ccccc2)c2c([N+](=O)[O-])c(C)cc(C)c2n1 | 29.1 µM [rising, single point] | 
14 | FC(F)(F)c1cccc(Oc2nc(-c3ccccc3)nnc2C(F)(F)F)c1 | 3.16 µM [falling, full curve] | 
15 | Cc1cc(C)nc(NC(=O)c2c(Cl)cccc2Cl)n1 | 4.47 µM [falling, full curve] | 
16 | O=[N+]([O-])c1cccc(C2=NCCS2)c1 | 2.31 µM [rising, full curve, poor fit] | 
17 | Cc1cc(C)cc(N=C2NC(=O)/C(=C/c3cccs3)S2)c1 | 8.2 µM [falling, partial curve, poor fit] | 
18 | O=C(Nc1cccc(S(=O)(=O)N2CCOCC2)c1)c1cn(-c2ccccc2)nc1-c1ccc(F)cc1 |  | 2.91 µM [falling, partial curve, poor fit]
19 | CCN(CC)c1ccc(S(=O)(=O)N2CCOCC2)cc1NC(=O)CSc1nncs1 | 20.6 µM [rising, single point] | 
20 | Cc1cc(C)c(O)c(-c2cc(C(=O)Nc3cccnc3)[nH]n2)c1 | 14.1 µM [falling, partial curve, poor fit] | 
21 | Cc1nc2scc(C)n2c(=O)c1S(=O)(=O)N1CCN(c2cccc(C(F)(F)F)c2)CC1 | 4.47 µM [rising, full curve, poor fit] | 

3 compounds already listed, arranged by formula weight, high to low:
Row | Compound | AC50 [1] | AC50 [2]
6 | COc1ccc(NC(=O)CC2C(=O)N(c3ccc(F)cc3)C(=S)N2NC(=O)c2ccc(Cl)cc2)cc1 (stereo unspecified) | 16.4 µM [falling, partial curve] | 
9 | N#Cc1c(N)n(Cc2ccccc2)c(=O)c2cc([N+](=O)[O-])ccc12 | 5.01 µM [rising, full curve, poor fit] | 
17 | Cc1cc(C)cc(N=C2NC(=O)/C(=C/c3cccs3)S2)c1 | 8.2 µM [falling, partial curve, poor fit] | 

Additional structures follow:

Row | Compound | AC50 [1] | AC50 [2]
22 | CCCCNC(=O)c1ccccc1NC(=O)c1ccccc1N(C)S(C)(=O)=O | 0.116 µM [falling, full curve, poor fit] | 
23 | CCOC(=O)CC(=O)CSc1ncnc2c1nnn2-c1ccc(F)cc1 | 35.5 µM [falling, single point] | 
24 | CCOC(=O)c1c(NC(=O)CSc2nnc(Cc3ccccc3)o2)sc(C)c1C | 18.4 µM [falling, single point] | 
25 | Cc1cccc(NC(=O)CSc2nc3[nH]ncc3c(=O)[nH]2)c1C | 10.3 µM [falling, partial curve, poor fit] | 
26 | O=C1Nc2ccccc2S/C1=C\C(=O)N1CCCC1 | 17.8 µM [falling, single point] | 
27 | O=C(NCCOc1ccccc1F)c1cc(F)c(F)cc1Cl | 3.66 µM [rising, full curve, poor fit] | 
28 | OCCCNc1cc(-c2ccccc2)nc2cc(-c3ccc(F)cc3)nn12 | 1.12 µM [falling, full curve, poor fit] | 
29 | CCOc1cccc(OCCCOc2ccccc2)c1 | 13 µM [rising, partial curve, poor fit] | 
30 | Cc1cc(C)c(S(=O)(=O)N2CCN(C(=O)C3COc4ccccc4O3)CC2)c(C)c1 (stereo unspecified) | 2.59 µM [rising, full curve] | 
31 | CCC(CC)C(=O)c1c[nH]c(C(=O)NCCc2ccccn2)c1 | 12.6 µM [rising, partial curve] | 
32 | CCOc1ccccc1Nc1ncnc2c1cnn2-c1ccccc1 | 29.1 µM [falling, single point] | 
33 | Cc1ccc(OCC(=O)N2N=C(c3cccnc3)CC2(O)C(F)(F)F)cc1C (stereo unspecified) | 29.1 µM [falling, single point] | 
34 | CSC1=NC(C)(C)C=C(/C=C/c2ccc(Cl)cc2Cl)N1 | 10 µM [falling, partial curve] | 
35 | CCOC(=O)c1c(N)c2cc([N+](=O)[O-])cnc2n1C |  | 17.8 µM [rising, partial curve, poor fit]
36 | CC(=O)N1CC(=O)N=C1SCC(=O)Nc1nc(C)c(-c2ccccc2)s1 | 1.58 µM [rising, partial curve, poor fit] | 11.2 µM [falling, partial curve]
37 | CCCOc1ccc(-c2nc(=S)[nH][nH]2)cc1 | 4.61 µM [rising, full curve, poor fit] | 
38 | Cc1noc(C)c1C(=O)Nc1nc2ccccc2s1 | 14.6 µM [falling, single point] | 
39 | NC(=O)c1cccn1Cc1cccc(Cl)c1 | 6.51 µM [falling, single point] | 
40 | CC(C(=O)Nc1ccc2c(c1)OCCO2)N(C)Cc1c(F)cccc1Cl (stereo unspecified) | 22.4 µM [rising, single point] | 
41 | Cc1cc(N2C(=O)C(O)=C(C(=O)c3ccc(C)o3)C2c2cccc(Oc3ccccc3)c2)no1 (stereo unspecified) | 22.4 µM [falling, single point] | 
42 | Cc1ccccc1N=C1NN=C(c2ccccc2F)CS1 | 23.1 µM [falling, single point] | 

Row | Compound | AC50 [1] | AC50 [2]
43 | CN(C)S(=O)(=O)c1ccc(NC(=O)CCCNC(=O)c2ccc(Cl)cc2)cc1 | 12.6 µM [falling, single point] | 
44 | COc1ccc(C(=O)/C=C2/c3ccccc3CC(C)(C)N2C)cc1 | 22.4 µM [rising, partial curve, poor fit] | 5.01 µM [falling, partial curve]
45 | COC(=O)CSc1nnc(C2COc3ccccc3O2)n1-c1ccccc1 (stereo unspecified) | 20.6 µM [falling, partial curve, poor fit] | 
46 | COc1ccccc1CNC(=O)CCC1N=C2c3ccccc3N=C(SCc3ccc(C)cc3)N2C1=O (stereo unspecified) | 35.5 µM [falling, single point] | 35.5 µM [rising, partial curve, poor fit]
47 | COC(=O)c1c(NC(=O)Nc2ccc(Cl)cc2)sc(C)c1C | 8.2 µM [falling, partial curve, poor fit] | 
48 | Cc1ccccc1NS(=O)(=O)c1cc2c3c(c1)CC(=O)N3CCC2 | 1.26 µM [rising, full curve, poor fit] | 
49 | Cc1ccc(-c2cc(N)n[nH]2)cc1 | 18.4 µM [falling, single point] | 
50 | Cc1ccc(C2C(C#N)=C(N)SC(N)=C2C#N)cc1 | 0.631 µM [rising, full curve, poor fit] | 
51 | O=c1cc(CSc2ccccc2)nc(-c2ccccc2)[nH]1 | 12.6 µM [falling, single point] | 
52 | O=C(C1CCN(S(=O)(=O)c2ccccc2F)CC1)N1CCc2ccccc21 | 29.1 µM [rising, single point] | 
53 | COc1ccc2[nH]c(=O)c(CN(Cc3nnnn3Cc3ccco3)C3CCCCC3)cc2c1 | 17.8 µM [falling, single point] | 
54 | Cc1cccnc1NC(=O)CCCc1c[nH]c2ccccc12 | 4.47 µM [falling, partial curve, poor fit] | 
55 | Clc1ccccc1-c1nnc2n1CCCCC2 | 2.51 µM [falling, full curve, poor fit] | 
56 | CCN(CC)CCCN(C(=O)c1cccs1)c1nc(-c2ccc(OC)cc2)cs1 | 15.8 µM [falling, single point] | 
57 | COc1ccc(-c2csc(NC(=O)c3cc(C)on3)c2C#N)cc1OC | 23.1 µM [rising, partial curve, poor fit] | 
58 | CC(C)(C)NS(=O)(=O)c1ccc(N2C(=O)c3ccccc3C2=O)cc1 | 0.58 µM [rising, full curve, poor fit] | 
59 | Cc1ccccc1CNC(=O)CCC(=O)N1CCOc2ccc(Cl)cc21 | 35.5 µM [falling, partial curve, poor fit] | 
60 | CCC(C)Sc1cccc(-c2nc3cnccn3c2NC2CCCCC2)c1 (stereo unspecified) | 20.6 µM [falling, single point] | 
61 | COc1cc(OC)c2cc(C(=O)N/N=C/c3cccc(OC)c3O)[nH]c2c1 | 3.16 µM [falling, partial curve, poor fit] | 
62 | COc1ccc2nc(N(Cc3cccnc3)C(=O)C3CCCCC3)sc2c1 | 1.58 µM [rising, full curve, poor fit] | 
63 | O=C(CCCC(=O)N(CC(=O)NC1CCCCC1)c1ccc(F)cc1)Nc1ccccn1 | 2.82 µM [falling, full curve] | 
